The list shows a part of the results.
Legend:
Assay in all cases: log2 fold change, soluble protein after heating vs DMSO (PISA); higher = thermal stabilisation; K562 cells, 10 uM, 30 min; active = over 0.2 and 3.5 SD of the protein, either way, in both replicates (recomputed)
[1] = compound: CC1=C(C=C(C=C1)NC(=O)C2=CC(=CC=C2)C(C)(C)C#N)NC3=CC4=C(C=C3)N=CN(C4=O)C
In short: (§1)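 For each measurement, 10 μM compound was applied for 30 min to K562 cells at 2×10^6 cells/mL. Aliquots were heated for 3 min across 48°C-58°C, pooled, and extracted in PBS with 0.5% NP-40 at 4°C; the supernatant after 21,000xg for 90 min was soluble protein. This was quantified by TMTpro 16plex LC-MS/MS with channel sums equalised, and thermal stability was reported relative to control samples from duplicates, on a log2 fold-change scale.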

Chains of the proteins cited; added tags and fusions are not shown. Lines headed by an entry give the natural chain unless they say otherwise; changes in a name come on top.
UniProt Q9NUI1: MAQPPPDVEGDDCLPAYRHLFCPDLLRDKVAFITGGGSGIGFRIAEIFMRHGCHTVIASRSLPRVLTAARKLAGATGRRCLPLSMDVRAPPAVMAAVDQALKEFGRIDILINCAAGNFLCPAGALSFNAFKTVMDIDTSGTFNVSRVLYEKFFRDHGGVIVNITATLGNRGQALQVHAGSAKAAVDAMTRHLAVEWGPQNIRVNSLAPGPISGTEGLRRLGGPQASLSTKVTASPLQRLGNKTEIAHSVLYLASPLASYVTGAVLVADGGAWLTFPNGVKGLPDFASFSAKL
UniProt Q9GZP9: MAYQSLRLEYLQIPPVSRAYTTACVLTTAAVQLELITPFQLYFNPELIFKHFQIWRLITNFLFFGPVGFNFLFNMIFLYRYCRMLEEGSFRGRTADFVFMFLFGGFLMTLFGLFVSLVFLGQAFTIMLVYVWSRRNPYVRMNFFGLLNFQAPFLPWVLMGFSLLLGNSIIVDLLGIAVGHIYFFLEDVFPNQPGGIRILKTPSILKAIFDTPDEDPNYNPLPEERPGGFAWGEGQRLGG
UniProt P51530: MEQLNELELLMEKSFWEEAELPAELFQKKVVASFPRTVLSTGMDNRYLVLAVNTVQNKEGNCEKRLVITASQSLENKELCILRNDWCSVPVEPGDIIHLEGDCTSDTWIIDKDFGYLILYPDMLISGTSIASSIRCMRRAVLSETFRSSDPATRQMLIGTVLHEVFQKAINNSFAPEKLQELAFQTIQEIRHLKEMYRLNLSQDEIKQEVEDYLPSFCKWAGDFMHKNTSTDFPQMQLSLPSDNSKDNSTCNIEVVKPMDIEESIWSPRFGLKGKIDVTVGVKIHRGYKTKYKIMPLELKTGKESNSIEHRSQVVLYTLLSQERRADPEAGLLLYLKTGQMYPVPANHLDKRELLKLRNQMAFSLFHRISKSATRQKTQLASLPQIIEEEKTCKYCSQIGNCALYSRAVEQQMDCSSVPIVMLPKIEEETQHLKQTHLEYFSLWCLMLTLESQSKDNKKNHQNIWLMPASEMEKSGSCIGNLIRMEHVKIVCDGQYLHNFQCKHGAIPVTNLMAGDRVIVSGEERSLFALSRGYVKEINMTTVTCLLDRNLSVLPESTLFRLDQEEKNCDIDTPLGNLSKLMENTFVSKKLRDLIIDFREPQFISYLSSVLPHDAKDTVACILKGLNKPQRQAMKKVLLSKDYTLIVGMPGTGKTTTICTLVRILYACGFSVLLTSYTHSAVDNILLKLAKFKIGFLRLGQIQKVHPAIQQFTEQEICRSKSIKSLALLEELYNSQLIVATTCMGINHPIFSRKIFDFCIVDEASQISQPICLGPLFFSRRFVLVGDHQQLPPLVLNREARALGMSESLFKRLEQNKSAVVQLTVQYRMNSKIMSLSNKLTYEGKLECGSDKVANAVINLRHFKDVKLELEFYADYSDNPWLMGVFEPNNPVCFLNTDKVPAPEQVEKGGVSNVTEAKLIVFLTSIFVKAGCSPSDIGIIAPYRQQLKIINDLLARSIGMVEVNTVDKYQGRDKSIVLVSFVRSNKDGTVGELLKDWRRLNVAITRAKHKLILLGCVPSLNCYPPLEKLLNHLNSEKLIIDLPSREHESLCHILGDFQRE
UniProt Q9UPY3: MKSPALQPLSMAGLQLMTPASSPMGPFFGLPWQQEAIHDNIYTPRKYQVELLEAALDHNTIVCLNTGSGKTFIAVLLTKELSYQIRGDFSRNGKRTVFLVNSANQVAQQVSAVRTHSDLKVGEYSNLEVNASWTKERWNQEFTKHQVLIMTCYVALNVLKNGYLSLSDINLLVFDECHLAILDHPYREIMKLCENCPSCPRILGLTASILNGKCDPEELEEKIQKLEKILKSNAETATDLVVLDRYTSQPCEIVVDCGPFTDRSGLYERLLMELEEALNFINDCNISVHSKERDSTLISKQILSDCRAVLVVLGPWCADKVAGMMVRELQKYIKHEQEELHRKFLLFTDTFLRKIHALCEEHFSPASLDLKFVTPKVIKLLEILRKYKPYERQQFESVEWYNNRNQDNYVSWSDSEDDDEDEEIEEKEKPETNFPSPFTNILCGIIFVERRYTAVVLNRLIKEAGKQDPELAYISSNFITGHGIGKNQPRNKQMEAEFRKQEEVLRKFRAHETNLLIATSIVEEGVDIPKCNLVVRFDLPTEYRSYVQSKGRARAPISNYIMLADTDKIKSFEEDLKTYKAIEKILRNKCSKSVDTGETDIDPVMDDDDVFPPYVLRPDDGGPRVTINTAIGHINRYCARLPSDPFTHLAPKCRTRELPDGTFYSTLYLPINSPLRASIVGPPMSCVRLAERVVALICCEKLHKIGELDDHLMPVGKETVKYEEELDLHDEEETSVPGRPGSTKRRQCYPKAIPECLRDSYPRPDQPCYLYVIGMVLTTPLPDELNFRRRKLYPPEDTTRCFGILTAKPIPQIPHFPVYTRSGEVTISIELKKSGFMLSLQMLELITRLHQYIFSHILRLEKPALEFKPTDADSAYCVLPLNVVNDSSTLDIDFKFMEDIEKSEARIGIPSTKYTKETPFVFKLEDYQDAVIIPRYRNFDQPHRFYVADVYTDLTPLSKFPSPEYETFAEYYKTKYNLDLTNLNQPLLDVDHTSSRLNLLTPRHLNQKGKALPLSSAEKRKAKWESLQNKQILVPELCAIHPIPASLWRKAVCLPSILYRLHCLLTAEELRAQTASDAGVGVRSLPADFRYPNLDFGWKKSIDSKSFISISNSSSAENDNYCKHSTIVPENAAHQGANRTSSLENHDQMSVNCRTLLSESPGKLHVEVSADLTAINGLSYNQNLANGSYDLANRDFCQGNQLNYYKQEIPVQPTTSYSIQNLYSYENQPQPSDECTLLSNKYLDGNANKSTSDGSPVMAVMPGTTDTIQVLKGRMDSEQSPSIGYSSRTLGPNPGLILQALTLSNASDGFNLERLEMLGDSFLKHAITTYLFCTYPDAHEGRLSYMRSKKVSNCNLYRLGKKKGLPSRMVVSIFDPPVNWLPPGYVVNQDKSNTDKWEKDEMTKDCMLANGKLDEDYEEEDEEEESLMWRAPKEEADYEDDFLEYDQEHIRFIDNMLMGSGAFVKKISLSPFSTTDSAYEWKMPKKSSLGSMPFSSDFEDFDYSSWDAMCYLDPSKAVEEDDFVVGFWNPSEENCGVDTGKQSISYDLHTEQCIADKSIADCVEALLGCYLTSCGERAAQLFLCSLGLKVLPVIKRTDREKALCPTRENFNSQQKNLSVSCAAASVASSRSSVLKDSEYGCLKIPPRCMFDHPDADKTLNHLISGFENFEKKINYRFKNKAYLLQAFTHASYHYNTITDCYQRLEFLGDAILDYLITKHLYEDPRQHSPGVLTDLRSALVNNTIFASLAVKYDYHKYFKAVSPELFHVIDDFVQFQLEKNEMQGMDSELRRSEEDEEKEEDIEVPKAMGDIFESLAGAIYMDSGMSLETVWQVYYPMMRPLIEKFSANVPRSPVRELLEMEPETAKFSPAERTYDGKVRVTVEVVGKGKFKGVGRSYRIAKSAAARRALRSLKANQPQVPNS
UniProt Q8IX18: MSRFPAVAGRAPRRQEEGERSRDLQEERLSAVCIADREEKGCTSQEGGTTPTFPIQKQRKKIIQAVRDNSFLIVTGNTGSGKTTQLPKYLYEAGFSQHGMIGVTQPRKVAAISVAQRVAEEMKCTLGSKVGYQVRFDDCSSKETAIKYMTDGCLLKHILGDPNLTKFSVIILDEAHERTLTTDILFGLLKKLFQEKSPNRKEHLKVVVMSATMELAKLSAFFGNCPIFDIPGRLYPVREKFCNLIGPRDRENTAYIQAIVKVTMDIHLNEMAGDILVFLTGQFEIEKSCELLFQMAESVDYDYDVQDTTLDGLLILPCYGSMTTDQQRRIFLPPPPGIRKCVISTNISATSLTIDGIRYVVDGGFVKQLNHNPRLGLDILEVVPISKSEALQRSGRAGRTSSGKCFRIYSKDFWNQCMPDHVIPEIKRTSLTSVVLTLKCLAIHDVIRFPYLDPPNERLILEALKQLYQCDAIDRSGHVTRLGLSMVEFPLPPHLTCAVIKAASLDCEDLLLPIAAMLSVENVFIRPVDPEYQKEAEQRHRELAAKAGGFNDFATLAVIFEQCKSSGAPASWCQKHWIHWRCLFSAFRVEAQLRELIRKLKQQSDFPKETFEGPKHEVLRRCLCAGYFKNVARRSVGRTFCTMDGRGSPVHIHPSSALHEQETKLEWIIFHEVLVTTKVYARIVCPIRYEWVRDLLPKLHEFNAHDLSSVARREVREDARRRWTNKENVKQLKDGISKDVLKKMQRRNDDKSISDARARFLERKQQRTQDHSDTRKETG
UniProt Q8TF46, whole entry, looked up: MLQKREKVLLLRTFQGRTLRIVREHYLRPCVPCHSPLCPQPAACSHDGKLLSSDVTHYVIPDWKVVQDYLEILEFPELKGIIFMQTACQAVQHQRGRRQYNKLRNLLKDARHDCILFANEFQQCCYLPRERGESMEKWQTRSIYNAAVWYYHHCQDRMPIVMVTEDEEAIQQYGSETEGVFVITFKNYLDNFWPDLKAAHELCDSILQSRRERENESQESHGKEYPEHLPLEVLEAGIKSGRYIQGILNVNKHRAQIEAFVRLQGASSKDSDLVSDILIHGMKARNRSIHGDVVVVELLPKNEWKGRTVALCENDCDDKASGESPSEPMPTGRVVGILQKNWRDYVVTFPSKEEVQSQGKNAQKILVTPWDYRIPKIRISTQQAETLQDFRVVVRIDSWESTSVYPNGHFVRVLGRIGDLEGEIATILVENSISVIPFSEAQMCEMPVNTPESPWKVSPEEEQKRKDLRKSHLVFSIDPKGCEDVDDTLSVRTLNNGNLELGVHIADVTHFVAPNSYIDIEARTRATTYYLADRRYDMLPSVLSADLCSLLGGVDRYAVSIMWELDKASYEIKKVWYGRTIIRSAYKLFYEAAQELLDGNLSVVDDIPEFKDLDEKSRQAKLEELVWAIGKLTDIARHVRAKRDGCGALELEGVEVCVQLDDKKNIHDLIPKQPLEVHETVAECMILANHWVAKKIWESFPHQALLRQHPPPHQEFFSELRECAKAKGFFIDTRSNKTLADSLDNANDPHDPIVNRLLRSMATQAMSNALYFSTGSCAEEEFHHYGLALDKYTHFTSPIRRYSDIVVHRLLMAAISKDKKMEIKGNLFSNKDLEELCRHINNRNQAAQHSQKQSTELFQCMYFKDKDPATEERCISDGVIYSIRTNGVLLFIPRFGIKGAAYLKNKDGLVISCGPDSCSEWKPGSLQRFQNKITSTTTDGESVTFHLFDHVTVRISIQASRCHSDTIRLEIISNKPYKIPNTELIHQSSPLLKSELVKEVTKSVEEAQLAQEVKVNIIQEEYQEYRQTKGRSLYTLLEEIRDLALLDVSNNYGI
UniProt Q96GE9: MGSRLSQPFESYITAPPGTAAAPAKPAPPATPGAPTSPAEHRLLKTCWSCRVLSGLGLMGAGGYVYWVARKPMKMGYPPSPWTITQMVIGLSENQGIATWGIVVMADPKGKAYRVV
UniProt O60231: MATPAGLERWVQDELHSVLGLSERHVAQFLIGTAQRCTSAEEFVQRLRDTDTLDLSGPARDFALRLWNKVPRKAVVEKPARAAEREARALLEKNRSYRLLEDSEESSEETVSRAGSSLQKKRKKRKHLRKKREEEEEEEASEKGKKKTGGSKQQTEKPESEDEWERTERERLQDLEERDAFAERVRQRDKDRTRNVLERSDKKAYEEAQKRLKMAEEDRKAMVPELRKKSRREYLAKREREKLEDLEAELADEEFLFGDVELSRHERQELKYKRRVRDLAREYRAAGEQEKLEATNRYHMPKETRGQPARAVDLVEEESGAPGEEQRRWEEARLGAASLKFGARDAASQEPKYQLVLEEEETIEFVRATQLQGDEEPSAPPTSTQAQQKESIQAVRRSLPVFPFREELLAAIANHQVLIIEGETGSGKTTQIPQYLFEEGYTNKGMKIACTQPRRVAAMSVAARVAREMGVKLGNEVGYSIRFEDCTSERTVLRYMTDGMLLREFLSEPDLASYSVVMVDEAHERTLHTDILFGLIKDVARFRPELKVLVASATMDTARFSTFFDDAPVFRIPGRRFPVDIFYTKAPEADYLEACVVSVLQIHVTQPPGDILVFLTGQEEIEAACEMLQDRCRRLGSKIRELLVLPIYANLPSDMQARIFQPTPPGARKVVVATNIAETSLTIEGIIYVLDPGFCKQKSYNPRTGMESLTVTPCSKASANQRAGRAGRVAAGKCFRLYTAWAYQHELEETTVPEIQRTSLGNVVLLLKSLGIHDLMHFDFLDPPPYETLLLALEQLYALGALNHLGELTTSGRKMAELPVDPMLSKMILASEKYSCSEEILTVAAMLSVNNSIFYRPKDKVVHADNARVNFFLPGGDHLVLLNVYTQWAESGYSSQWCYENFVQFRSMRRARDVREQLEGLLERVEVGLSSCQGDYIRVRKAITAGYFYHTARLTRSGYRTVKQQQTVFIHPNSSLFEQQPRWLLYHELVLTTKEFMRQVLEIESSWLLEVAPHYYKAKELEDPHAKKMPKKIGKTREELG

[2] = compound: CC1=CC=C(C=C1)SC2=C3C=C(SC3=CN=C2)C(=O)N
In short: as §1

[3] = compound: CC1=NC(=CC=C1)C2=C(N=C(N2)C(C)(C)C)C3=CC4=NC=CN=C4C=C3
In short: as §1

Nexturastat A = compound: CCCCN(Cc1ccc(C(=O)NO)cc1)C(=O)Nc1ccccc1 [Nexturastat A]
In short: as §1

vemurafenib = compound: CCCS(=O)(=O)Nc1ccc(F)c(C(=O)c2c[nH]c3ncc(-c4ccc(Cl)cc4)cc23)c1F [vemurafenib]
In short: as §1

[4] = compound: CCCS(=O)(=O)Nc1ccc(F)c(C(=O)c2c[nH]c3ncc(Cl)cc23)c1F
In short: as §1

[5] = compound: CCCc1cc(C)[nH]c(=O)c1CNC(=O)c1cc(-c2ccnc(N3CCN(C)CC3)c2)cc2c1cnn2C(C)C
In short: as §1

givinostat = compound: CCN(CC)Cc1ccc2cc(COC(=O)Nc3ccc(C(=O)NO)cc3)ccc2c1 [givinostat]
In short: as §1

barasertib = compound: CCN(CCCOc1ccc2c(Nc3cc(CC(=O)Nc4cccc(F)c4)[nH]n3)ncnc2c1)CCOP(=O)(O)O [barasertib]
In short: as §1

[6] = compound: CC[C@@H]1C(=O)N(C)c2cnc(Nc3ccc(C(=O)NC4CCN(C)CC4)cc3OC)nc2N1C1CCCC1
In short: as §1

volasertib = compound: CC[C@@H]1C(=O)N(C)c2cnc(Nc3ccc(C(=O)N[C@H]4CC[C@H](N5CCN(CC6CC6)CC5)CC4)cc3OC)nc2N1C(C)C [volasertib]
In short: as §1

[7] = compound: CC[C@H](C)N1C=C(C2=C(C=C(C=C21)C3=CN=C(C=C3)N4CCNCC4)C(=O)NCC5=C(C=C(NC5=O)C)C)C
In short: as §1

epoxomicin = compound: CC[C@H](C)[C@@H](C(=O)N[C@@H]([C@@H](C)O)C(=O)N[C@@H](CC(C)C)C(=O)[C@]1(CO1)C)NC(=O)[C@H]([C@@H](C)CC)N(C)C(=O)C [epoxomicin]
In short: as §1

[8] = compound: CCn1c(C(=O)N(C2CC2)C2CC2)cc2c3c(ncn3C)c(Nc3cc(C)n(C)n3)nc21
In short: as §1

[9] = compound: CCn1cc(-c2ccnc3[nH]c(-c4cccc(CN(C)C)c4)cc23)c(-c2ccc(NC(=O)N(C)C)cc2)n1
In short: as §1

[10] = compound: CN(C)CC(=O)Nc1ccc2[nH]c(=O)c3ccccc3c2c1
In short: as §1

rosiglitazone = compound: CN(CCOC1=CC=C(C=C1)C[C@H]2C(=O)NC(=O)S2)C3=CC=CC=N3 (racemic) [rosiglitazone]
In short: as §1

[11] = compound: CN1C2=C(C3=C1C(=O)N(N=C3)CC4=CC(=CC=C4)N)SC(=C2)S(=O)C
In short: as §1

[12] = compound: CN1CCC(CNc2ccc3ncc(-c4cccc(OC(F)(F)F)c4)n3n2)CC1
In short: as §1

[13] = compound: CC1=C(C=C(C=C1)NC(=O)C2=CC(=CC=C2)N(C)C)NC(=O)C3=CC=C(C=C3)O
In short: as §1

| Target | log2 fold change [1] | log2 fold change [2] | log2 fold change [3] | log2 fold change (Nexturastat A) | log2 fold change (vemurafenib) | log2 fold change [4] | log2 fold change [5] | log2 fold change (givinostat) | log2 fold change (barasertib) | log2 fold change [6] | log2 fold change (volasertib) | log2 fold change [7] | log2 fold change (epoxomicin) | log2 fold change [8] | log2 fold change [9] | log2 fold change [10] | log2 fold change (rosiglitazone) | log2 fold change [11] | log2 fold change [12] | log2 fold change [13] |
| --- | --- | --- | --- | --- | --- | --- | --- | --- | --- | --- | --- | --- | --- | --- | --- | --- | --- | --- | --- | --- |
| DECR2 (UniProt Q9NUI1) | inactive: 0.068 | inactive: -0.029 | inactive: -0.06 | inactive: -0.056 | inactive: 0.128 | inactive: -0.031 | inactive: 0.029 | inactive: -0.024 | inactive: 0.093 | inactive: 0.002 | inactive: -0.003 | inactive: -0.017 | inactive: 0.036 | inactive: 0.022 | inactive: -0.234 | inactive: -0.02 | inactive: 0.012 | inactive: 0.073 | inactive: -0.032 | – |
| DDX24 (UniProt Q9GZR7) | inactive: -0.099 | inactive: -0.104 | inactive: -0.047 | inactive: 0.229 | inactive: -0.12 | inactive: -0.002 | inactive: -0.557 | – | – | – | inactive: -0.193 | – | inactive: -0.271 | – | inactive: 0.123 | inactive: 0.831 | – | inactive: 0.296 | inactive: 0.291 | inactive: -0.116 |
| DNAAF2 (UniProt Q9NVR5) | inactive: -0.037 | inactive: -0.046 | inactive: -0.038 | inactive: -0.034 | inactive: 0.043 | inactive: -0.038 | inactive: -0.065 | inactive: 0 | inactive: -0.009 | inactive: 0.11 | inactive: -0.113 | inactive: -0.031 | inactive: -0.012 | – | inactive: 0.095 | inactive: 0 | – | inactive: 0.042 | active: -0.279 | inactive: -0.043 |
| DDX46 (UniProt Q7L014) | inactive: 0.123 | inactive: 0 | inactive: 0.069 | inactive: -0.069 | inactive: 0.099 | inactive: 0.136 | inactive: 0.001 | inactive: 0.171 | inactive: 0.13 | inactive: -0.259 | inactive: -0.275 | inactive: 0.087 | inactive: 0.192 | – | inactive: -0.129 | inactive: 0.133 | – | inactive: -0.066 | inactive: 0.087 | inactive: -0.117 |
| DDX5 (UniProt P17844) | inactive: 0.136 | inactive: 0.036 | inactive: 0.112 | inactive: 0.033 | inactive: 0.142 | inactive: 0.174 | inactive: 0.036 | inactive: 0.178 | inactive: 0.122 | active: -0.426 | active: -0.589 | inactive: 0.103 | inactive: 0.149 | – | inactive: -0.083 | inactive: 0.101 | – | inactive: 0.018 | inactive: 0.019 | inactive: -0.131 |
| DDX41 (UniProt Q9UJV9) | inactive: -0.012 | inactive: -0.004 | – | inactive: 0.094 | inactive: -0.024 | inactive: 0.017 | inactive: 0.001 | inactive: 0.105 | inactive: -0.076 | inactive: -0.09 | inactive: -0.011 | inactive: -0.002 | inactive: 0.096 | inactive: -0.005 | inactive: -0.035 | inactive: -0.041 | inactive: 0.025 | inactive: 0.028 | inactive: -0.152 | inactive: 0.115 |
| DENND4A isoform 2 (UniProt Q7Z401) | inactive: -0.083 | inactive: 0.059 | inactive: -0.215 | inactive: 0.024 | inactive: -0.049 | inactive: 0.014 | inactive: 0.227 | – | inactive: 0.301 | inactive: -0.012 | inactive: -0.081 | inactive: 0.137 | inactive: -0.122 | – | inactive: -0.002 | inactive: 0.004 | inactive: 0.046 | inactive: 0.147 | inactive: -0.231 | inactive: 0.047 |
| DGKA (UniProt P23743) | inactive: 0.028 | inactive: 0.025 | – | inactive: 0.116 | inactive: -0.404 | inactive: 0.06 | inactive: -0.217 | inactive: 0.044 | inactive: 0.057 | – | inactive: -0.505 | – | inactive: -0.025 | inactive: -0.103 | – | inactive: 0.239 | inactive: 0 | inactive: 0.102 | – | inactive: 0.069 |
| DERL2 (UniProt Q9GZP9) | inactive: -0.13 | inactive: -0.078 | inactive: 0.093 | inactive: -0.103 | inactive: -0.031 | inactive: -0.092 | inactive: -0.034 | – | inactive: 0.056 | – | inactive: -0.029 | inactive: -0.19 | inactive: 0.031 | – | inactive: 0.17 | inactive: 0.041 | inactive: 0.12 | inactive: -0.025 | inactive: 0.02 | inactive: 0.002 |
| DNA2 (UniProt P51530) | inactive: -0.392 | inactive: -0.061 | inactive: -0.065 | inactive: 0.307 | inactive: 0.008 | inactive: 0.046 | – | – | inactive: -0.107 | inactive: 0.063 | inactive: -0.452 | inactive: -0.147 | inactive: -0.047 | – | inactive: -0.074 | inactive: 0.126 | inactive: 0.358 | – | inactive: -0.007 | – |
| DICER1 (UniProt Q9UPY3) | inactive: 0.033 | inactive: 0.026 | – | inactive: 0.027 | inactive: -0.182 | inactive: -0.002 | inactive: -0.003 | inactive: -0.05 | inactive: -0.095 | – | inactive: -0.033 | inactive: 0.11 | inactive: -0.489 | inactive: -0.043 | inactive: 0.043 | inactive: -0.206 | inactive: 0.042 | inactive: 0.166 | inactive: 0.006 | inactive: -0.036 |
| DHX40 (UniProt Q8IX18) | inactive: 0.105 | inactive: 0.02 | inactive: -0.027 | inactive: 0.12 | inactive: 0 | inactive: 0.043 | inactive: 0.025 | inactive: 0.087 | inactive: -0.002 | inactive: -0.006 | inactive: -0.236 | inactive: 0.188 | inactive: -0.037 | – | inactive: -0.013 | inactive: 0.026 | – | inactive: -0.076 | inactive: -0.029 | inactive: -0.047 |
| DENND1B (UniProt Q6P3S1) | inactive: 0.039 | inactive: -0.084 | inactive: 0.174 | inactive: 0.258 | inactive: 0.074 | inactive: -0.237 | inactive: -0.072 | – | inactive: -0.019 | inactive: -0.058 | inactive: -0.366 | inactive: -0.297 | inactive: -0.308 | – | – | inactive: -0.172 | inactive: -0.049 | inactive: -0.039 | – | – |
| DIS3L (UniProt Q8TF46) | inactive: -0.031 | inactive: -0.018 | inactive: 0.044 | inactive: 0.176 | inactive: 0.021 | inactive: 0.043 | inactive: 0.115 | inactive: 0.16 | – | inactive: -0.059 | inactive: -0.307 | inactive: -0.09 | inactive: -0.214 | inactive: 0.073 | – | inactive: 0.13 | – | inactive: 0.133 | – | inactive: -0.181 |
| DGKE (UniProt P52429) | inactive: -0.002 | inactive: 0.042 | inactive: 0.149 | – | – | inactive: 0.251 | inactive: 0.082 | inactive: -0.06 | inactive: 0.035 | – | inactive: -0.146 | inactive: 0.209 | – | inactive: -0.022 | – | – | inactive: 0.08 | – | – | – |
| DMAC1 (UniProt Q96GE9) | inactive: -0.173 | inactive: 0.116 | inactive: 0.005 | inactive: -0.071 | inactive: -0.18 | inactive: -0.035 | inactive: -0.04 | inactive: -0.179 | inactive: 0.074 | inactive: 0.269 | inactive: 0.016 | inactive: -0.038 | inactive: -0.084 | – | inactive: -0.041 | inactive: 0.001 | – | inactive: -0.007 | inactive: 0.015 | inactive: 0.041 |
| DHX16 (UniProt O60231) | inactive: -0.014 | inactive: 0.024 | inactive: 0.036 | inactive: -0.002 | inactive: 0.017 | inactive: 0.059 | inactive: -0.011 | inactive: 0.017 | inactive: 0.032 | inactive: -0.032 | inactive: -0.158 | inactive: 0.032 | inactive: 0.051 | – | inactive: -0.054 | inactive: -0.025 | – | inactive: -0.033 | inactive: -0.012 | inactive: -0.018 |
| DDHD1 (UniProt Q8NEL9) | inactive: 0.077 | inactive: -0.099 | inactive: -0.042 | – | – | inactive: 0.071 | – | inactive: -0.081 | inactive: 0.112 | – | inactive: -0.27 | – | – | inactive: 0.13 | inactive: 0.029 | – | inactive: -0.006 | inactive: 0.03 | inactive: -0.303 | inactive: -0.111 |
| DIEXF (UniProt Q68CQ4) | – | – | – | – | inactive: 0.063 | – | – | – | – | – | – | – | – | – | – | inactive: 0.145 | – | inactive: 0.172 | – | – |
| DMBT1 isoform 6 (UniProt Q9UGM3) | inactive: 0.014 | – | – | inactive: 0.04 | – | – | inactive: -0.197 | – | inactive: -0.185 | – | – | inactive: 0.955 | inactive: 0.439 | – | – | – | inactive: -0.013 | – | – | – |

Reformatted: entries from further up.
Target | log2 fold change [1] | log2 fold change [2] | log2 fold change [3] | log2 fold change (Nexturastat A) | log2 fold change (vemurafenib) | log2 fold change [4] | log2 fold change [5] | log2 fold change (givinostat) | log2 fold change (barasertib) | log2 fold change [6] | log2 fold change (volasertib) | log2 fold change [7] | log2 fold change (epoxomicin) | log2 fold change [8] | log2 fold change [9] | log2 fold change [10] | log2 fold change (rosiglitazone) | log2 fold change [11] | log2 fold change [12] | log2 fold change [13]
DDX41 (UniProt Q9UJV9) | inactive: -0.012 | inactive: -0.004 | – | inactive: 0.094 | inactive: -0.024 | inactive: 0.017 | inactive: 0.001 | inactive: 0.105 | inactive: -0.076 | inactive: -0.09 | inactive: -0.011 | inactive: -0.002 | inactive: 0.096 | inactive: -0.005 | inactive: -0.035 | inactive: -0.041 | inactive: 0.025 | inactive: 0.028 | inactive: -0.152 | inactive: 0.115
DIEXF (UniProt Q68CQ4) | – | – | – | – | inactive: 0.063 | – | – | – | – | – | – | – | – | – | – | inactive: 0.145 | – | inactive: 0.172 | – | –
